Data on four substances can be found in publication PMC4136792.

Sequences of proteins named here, by UniProt entry; tags and fusion partners are left off. A change or cut given only in a name is not applied to a line headed by its entry.
UniProt P09874: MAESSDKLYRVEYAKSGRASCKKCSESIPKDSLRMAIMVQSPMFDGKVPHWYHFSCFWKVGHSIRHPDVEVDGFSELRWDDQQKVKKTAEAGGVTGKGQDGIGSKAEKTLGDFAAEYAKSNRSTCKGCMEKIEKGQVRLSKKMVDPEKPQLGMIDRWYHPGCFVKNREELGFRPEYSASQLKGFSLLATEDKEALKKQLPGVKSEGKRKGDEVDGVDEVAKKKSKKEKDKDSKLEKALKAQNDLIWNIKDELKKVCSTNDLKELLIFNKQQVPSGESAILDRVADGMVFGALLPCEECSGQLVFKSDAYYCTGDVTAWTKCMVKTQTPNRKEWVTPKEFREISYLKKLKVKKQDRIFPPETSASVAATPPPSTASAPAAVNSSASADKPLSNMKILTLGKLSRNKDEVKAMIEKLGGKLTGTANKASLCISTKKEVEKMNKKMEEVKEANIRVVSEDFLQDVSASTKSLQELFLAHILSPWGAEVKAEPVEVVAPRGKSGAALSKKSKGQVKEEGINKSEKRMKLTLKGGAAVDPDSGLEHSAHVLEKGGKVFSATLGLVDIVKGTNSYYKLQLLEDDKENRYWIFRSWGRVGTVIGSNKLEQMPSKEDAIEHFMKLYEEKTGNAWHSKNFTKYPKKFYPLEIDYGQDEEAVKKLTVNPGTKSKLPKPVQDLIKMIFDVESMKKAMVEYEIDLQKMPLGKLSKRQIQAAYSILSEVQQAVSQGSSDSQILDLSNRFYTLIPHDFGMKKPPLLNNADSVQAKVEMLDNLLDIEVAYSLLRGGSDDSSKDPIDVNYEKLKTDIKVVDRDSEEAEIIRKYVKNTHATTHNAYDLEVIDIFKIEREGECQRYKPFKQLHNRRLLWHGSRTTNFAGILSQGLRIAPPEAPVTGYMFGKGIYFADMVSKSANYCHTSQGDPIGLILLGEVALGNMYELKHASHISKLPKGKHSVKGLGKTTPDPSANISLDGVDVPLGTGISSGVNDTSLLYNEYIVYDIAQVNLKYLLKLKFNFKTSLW
UniProt Q15796: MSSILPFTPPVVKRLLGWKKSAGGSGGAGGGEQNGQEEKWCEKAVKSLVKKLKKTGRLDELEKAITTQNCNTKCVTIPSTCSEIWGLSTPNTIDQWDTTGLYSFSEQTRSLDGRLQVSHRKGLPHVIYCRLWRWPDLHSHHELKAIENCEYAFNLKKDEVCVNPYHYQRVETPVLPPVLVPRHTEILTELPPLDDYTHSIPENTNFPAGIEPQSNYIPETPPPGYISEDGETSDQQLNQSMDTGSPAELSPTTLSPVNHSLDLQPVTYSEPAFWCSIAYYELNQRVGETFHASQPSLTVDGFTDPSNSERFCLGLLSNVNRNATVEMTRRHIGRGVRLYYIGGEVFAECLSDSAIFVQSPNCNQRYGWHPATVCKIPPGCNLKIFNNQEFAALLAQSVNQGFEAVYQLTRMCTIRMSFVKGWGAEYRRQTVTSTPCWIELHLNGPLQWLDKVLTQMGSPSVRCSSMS
UniProt P84022: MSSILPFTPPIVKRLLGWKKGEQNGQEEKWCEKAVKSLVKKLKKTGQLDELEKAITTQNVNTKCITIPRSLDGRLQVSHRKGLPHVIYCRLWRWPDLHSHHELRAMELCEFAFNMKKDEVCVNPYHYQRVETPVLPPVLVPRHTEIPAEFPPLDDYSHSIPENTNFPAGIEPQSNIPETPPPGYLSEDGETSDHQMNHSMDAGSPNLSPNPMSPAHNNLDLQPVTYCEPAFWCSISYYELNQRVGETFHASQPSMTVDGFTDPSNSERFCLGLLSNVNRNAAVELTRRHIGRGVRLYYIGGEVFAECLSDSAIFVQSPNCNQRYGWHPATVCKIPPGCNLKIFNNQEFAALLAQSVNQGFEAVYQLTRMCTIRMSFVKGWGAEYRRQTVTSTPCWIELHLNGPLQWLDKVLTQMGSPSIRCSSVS
UniProt Q9UGN5: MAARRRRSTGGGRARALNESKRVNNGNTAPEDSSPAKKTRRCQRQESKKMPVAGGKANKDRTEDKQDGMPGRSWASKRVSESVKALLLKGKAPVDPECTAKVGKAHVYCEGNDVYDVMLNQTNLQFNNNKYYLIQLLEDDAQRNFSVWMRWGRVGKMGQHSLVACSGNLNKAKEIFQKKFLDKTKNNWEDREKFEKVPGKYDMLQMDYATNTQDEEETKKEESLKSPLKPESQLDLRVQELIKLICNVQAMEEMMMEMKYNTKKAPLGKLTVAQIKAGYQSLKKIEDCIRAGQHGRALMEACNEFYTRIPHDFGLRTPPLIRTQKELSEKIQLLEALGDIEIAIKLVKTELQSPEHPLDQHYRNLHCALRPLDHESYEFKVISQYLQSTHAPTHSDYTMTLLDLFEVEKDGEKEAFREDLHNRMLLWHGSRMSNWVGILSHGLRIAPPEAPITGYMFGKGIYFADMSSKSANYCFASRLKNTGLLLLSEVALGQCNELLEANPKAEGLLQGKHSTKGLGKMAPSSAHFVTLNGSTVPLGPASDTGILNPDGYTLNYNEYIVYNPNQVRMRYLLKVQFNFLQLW
UniProt Q13485: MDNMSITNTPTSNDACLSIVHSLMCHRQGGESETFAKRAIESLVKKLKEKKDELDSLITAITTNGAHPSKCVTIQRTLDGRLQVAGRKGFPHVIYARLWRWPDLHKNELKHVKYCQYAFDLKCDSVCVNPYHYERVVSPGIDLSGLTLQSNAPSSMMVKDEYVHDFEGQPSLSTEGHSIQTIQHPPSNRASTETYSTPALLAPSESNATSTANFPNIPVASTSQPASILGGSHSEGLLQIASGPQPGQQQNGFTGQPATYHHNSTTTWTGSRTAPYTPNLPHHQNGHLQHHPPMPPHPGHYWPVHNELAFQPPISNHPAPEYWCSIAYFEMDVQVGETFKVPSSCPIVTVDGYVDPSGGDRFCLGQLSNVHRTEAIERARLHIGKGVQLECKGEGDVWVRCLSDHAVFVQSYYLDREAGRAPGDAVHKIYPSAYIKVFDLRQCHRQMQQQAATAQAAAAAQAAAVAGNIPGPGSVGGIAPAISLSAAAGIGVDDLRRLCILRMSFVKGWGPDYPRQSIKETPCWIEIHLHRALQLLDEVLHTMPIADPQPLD

No constants are given. Whether binding was seen depends on the method and setting. For some assays here: In cells and extracts the contact can be indirect. Some results given as binding are weak or reduced against the parent protein; the word gives no strength.

For assay [1], the target named is poly(ADP-ribose) polymerase-1 (PARP-1) (human (endogenous in HaCaT)) (UniProt P09874). The assay is described as follows: proximity ligation; in situ PLA (Duolink II) on permeabilized HaCaT cells, endogenous proteins, one mouse and one rabbit primary antibody; vehicle, 2 ng/ml TGFβ1 for 0.5 or 1.5 h, or 10 mM hydrogen peroxide for 10 min; control, PARP-1 or PARP-2 siRNA.

The target is the same in assay [2]. The assay can be described thus: co-IP; endogenous proteins of HaCaT lysate; immunoprecipitation of PARP-1 or of PARP-2, immunoblot with the reciprocal antibody; vehicle or 5 ng/ml TGFβ1 for 30 min. A general note: A western blot detects proteins with antibodies after separation by electrophoresis.
Assay [3] deals with Flag-Smad2/3/4 (Flag-Smad2, Flag-Smad3 and Flag-Smad4 co-expressed) (UniProt Q15796). The assay can be described thus: co-IP; HEK-293T transiently transfected with Flag-Smad2/3/4; anti-Flag immunoprecipitation, immunoblot for endogenous PARP-1 and PARP-2; vehicle or 5 ng/ml TGFβ1 for 30 min; NP-40 lysis buffer, one wash with 0.5 M NaCl.
In assay [4] the target is Smad3 (human (endogenous in HaCaT)) (UniProt P84022). The assay can be described thus: proximity ligation; in situ PLA (Duolink II) on permeabilized HaCaT cells, endogenous proteins, one mouse and one rabbit primary antibody; vehicle, 2 ng/ml TGFβ1 for 0.5 or 1.5 h, or 10 mM hydrogen peroxide for 10 min; control, PARP-1 or PARP-2 siRNA.
The target in assay [5] is PARP-2 (human (endogenous in HaCaT)) (UniProt Q9UGN5). The assay can be described thus: co-IP; endogenous proteins of HaCaT lysate; immunoprecipitation of PARP-1 or of PARP-2, immunoblot with the reciprocal antibody; vehicle or 5 ng/ml TGFβ1 for 30 min.
Assay [6] addresses GST-Smad3 (UniProt P84022). The assay can be described thus: pull-down; GST or GST-Smad proteins kept on glutathione beads, incubated with 100 ng PARP-1 and/or 100 ng PARP-2 in 100 mM Tris-HCl pH 8, 10 mM MgCl2, 1 mM dithiothreitol with β-NAD and 32P-β-NAD for 30 min at 37°C; beads washed in NP-40 lysis buffer; SDS-PAGE and autoradiography (only ADP-ribosylated proteins are seen); both purified.

The target of assay [7] is GST-Smad4 (UniProt Q13485). The assay is described as above.

“PARP-2 (from UniProt Q9UGN5 1-583) (enzyme)”: the binding result in assay [1], in assay [2] and in assay [3] was “binds” throughout.
For the substance “poly(ADP-ribose) polymerase-1 (PARP-1) (from UniProt P09874 1-1014) (enzyme)”, the binding entry in assay [4] and in assay [5] was “binds” throughout.
In the case of “recombinant PARP-1 (from UniProt P09874 1-1014) (enzyme)”, the binding entry in assay [6] and in assay [7] was “binds” in each case.
Turning to “PARP-1 (from UniProt P09874 1-1014) (enzyme)”, the binding entry in assay [3] was “binds”.
